According to the supplement of paper PMC10849652:
This is one part of the list.

Protein sequences, listed by entry. Tags and fused reporters are not part of them. Lines headed by an entry give the natural chain unless they say otherwise; changes in a name come on top.
UniProt P02655: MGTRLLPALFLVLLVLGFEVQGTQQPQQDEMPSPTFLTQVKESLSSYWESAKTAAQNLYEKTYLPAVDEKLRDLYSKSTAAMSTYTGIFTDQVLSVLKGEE
UniProt Q8NB46: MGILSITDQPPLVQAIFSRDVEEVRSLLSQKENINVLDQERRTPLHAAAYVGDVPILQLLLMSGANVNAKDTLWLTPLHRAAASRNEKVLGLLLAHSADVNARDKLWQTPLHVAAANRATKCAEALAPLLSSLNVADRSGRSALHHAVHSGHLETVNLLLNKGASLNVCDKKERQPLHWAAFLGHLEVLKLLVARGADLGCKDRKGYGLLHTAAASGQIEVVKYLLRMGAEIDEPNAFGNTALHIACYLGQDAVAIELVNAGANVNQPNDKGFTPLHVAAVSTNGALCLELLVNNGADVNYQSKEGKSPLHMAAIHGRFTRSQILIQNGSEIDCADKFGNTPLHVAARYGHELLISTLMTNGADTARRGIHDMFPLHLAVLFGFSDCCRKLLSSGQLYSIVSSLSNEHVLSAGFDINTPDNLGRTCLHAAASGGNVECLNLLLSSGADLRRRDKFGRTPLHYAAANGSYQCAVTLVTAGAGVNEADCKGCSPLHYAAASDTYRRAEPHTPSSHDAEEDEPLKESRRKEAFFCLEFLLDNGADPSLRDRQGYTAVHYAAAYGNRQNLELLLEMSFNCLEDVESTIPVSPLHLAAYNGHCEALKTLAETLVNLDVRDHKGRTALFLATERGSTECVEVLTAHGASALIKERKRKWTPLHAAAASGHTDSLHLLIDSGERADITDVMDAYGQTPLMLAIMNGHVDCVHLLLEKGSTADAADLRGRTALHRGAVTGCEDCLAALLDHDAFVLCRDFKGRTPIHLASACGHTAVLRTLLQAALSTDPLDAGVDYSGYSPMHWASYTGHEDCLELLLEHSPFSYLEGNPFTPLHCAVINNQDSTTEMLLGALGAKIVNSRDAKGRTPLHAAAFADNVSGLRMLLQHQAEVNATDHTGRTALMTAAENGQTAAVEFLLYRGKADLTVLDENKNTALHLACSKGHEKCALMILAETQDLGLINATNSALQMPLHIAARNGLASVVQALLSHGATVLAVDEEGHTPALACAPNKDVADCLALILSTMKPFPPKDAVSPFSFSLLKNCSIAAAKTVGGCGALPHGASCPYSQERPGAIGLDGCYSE
UniProt Q8IW19: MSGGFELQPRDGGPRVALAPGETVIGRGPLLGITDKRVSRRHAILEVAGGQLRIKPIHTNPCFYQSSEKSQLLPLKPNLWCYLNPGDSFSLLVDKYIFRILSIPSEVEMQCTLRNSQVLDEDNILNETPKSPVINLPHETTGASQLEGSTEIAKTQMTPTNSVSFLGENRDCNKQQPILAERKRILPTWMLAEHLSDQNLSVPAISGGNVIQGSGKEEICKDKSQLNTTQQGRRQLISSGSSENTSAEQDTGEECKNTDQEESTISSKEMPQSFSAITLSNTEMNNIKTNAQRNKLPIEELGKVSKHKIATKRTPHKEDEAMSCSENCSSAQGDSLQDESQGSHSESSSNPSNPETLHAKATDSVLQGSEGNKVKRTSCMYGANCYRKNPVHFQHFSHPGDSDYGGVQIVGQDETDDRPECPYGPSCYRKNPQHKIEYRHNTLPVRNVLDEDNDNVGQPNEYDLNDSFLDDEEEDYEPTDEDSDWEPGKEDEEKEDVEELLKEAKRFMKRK
UniProt Q4LE39: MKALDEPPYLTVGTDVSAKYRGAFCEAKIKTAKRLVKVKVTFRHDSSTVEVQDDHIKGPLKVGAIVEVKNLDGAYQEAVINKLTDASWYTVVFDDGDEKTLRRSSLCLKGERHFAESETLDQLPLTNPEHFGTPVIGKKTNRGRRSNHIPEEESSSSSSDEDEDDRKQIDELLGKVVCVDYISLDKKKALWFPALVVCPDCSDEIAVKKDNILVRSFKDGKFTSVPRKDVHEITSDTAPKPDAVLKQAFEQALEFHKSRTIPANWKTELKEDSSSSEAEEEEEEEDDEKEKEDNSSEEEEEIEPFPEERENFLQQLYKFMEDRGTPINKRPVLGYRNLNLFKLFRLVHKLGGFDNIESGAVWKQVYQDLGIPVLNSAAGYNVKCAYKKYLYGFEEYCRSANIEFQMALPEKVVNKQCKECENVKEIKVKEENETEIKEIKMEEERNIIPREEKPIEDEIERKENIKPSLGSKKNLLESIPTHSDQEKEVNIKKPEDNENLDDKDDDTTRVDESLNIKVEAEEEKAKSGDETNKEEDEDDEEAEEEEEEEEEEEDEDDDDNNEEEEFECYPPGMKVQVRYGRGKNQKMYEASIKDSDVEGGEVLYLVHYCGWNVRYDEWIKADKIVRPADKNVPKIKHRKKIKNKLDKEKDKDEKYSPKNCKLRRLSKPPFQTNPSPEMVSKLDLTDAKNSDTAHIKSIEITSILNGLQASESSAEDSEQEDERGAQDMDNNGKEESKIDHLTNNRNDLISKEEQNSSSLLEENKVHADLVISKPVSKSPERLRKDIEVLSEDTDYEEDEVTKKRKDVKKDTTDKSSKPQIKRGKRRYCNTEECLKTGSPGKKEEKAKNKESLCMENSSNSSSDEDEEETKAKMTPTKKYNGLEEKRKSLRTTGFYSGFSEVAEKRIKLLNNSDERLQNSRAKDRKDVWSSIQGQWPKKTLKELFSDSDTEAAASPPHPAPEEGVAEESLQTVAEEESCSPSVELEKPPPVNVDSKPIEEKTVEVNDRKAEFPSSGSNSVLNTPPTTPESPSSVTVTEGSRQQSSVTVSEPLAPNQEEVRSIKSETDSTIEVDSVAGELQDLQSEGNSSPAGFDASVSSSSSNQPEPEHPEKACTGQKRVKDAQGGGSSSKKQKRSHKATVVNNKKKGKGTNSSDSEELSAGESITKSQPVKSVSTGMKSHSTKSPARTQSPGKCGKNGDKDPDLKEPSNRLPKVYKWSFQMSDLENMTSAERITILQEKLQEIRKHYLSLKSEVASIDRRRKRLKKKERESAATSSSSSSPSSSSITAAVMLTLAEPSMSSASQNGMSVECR
UniProt Q8N6S4: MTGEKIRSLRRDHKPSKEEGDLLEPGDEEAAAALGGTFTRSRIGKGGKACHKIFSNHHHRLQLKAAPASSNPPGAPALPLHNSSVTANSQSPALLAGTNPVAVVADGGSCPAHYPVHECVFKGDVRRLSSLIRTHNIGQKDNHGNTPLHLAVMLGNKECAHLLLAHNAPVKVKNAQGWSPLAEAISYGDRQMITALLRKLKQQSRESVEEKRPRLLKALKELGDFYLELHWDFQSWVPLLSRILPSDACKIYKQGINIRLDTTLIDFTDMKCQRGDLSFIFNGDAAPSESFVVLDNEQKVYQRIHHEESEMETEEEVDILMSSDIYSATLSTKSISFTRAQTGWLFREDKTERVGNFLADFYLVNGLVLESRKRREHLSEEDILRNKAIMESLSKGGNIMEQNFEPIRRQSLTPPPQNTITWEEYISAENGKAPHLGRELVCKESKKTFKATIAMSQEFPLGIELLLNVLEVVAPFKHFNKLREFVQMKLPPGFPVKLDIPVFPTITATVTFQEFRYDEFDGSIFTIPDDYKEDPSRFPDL
UniProt Q86XL3: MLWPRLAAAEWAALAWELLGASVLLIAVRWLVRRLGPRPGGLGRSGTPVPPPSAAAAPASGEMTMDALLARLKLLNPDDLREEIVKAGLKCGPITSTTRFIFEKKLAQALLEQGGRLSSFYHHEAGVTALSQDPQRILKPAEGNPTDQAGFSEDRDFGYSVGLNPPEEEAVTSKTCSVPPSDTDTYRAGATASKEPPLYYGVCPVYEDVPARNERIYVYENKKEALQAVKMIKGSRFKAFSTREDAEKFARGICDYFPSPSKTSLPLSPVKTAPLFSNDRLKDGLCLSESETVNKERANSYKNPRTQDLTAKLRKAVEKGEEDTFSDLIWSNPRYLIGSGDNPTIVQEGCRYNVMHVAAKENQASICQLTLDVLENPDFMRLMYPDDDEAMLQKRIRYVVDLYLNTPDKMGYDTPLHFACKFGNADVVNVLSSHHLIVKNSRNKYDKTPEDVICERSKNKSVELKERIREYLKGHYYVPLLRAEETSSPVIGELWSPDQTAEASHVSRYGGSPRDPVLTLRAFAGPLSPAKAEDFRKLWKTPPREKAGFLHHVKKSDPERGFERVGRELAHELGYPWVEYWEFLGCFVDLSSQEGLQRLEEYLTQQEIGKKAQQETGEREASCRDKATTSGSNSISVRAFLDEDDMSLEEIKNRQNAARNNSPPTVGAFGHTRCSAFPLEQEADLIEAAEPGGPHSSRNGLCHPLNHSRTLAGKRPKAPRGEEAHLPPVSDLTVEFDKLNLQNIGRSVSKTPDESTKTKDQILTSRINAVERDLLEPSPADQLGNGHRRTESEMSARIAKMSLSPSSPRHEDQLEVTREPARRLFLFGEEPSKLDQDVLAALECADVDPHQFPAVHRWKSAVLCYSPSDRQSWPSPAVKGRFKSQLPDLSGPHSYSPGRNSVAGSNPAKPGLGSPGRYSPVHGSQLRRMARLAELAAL
UniProt P05067, whole entry, looked up: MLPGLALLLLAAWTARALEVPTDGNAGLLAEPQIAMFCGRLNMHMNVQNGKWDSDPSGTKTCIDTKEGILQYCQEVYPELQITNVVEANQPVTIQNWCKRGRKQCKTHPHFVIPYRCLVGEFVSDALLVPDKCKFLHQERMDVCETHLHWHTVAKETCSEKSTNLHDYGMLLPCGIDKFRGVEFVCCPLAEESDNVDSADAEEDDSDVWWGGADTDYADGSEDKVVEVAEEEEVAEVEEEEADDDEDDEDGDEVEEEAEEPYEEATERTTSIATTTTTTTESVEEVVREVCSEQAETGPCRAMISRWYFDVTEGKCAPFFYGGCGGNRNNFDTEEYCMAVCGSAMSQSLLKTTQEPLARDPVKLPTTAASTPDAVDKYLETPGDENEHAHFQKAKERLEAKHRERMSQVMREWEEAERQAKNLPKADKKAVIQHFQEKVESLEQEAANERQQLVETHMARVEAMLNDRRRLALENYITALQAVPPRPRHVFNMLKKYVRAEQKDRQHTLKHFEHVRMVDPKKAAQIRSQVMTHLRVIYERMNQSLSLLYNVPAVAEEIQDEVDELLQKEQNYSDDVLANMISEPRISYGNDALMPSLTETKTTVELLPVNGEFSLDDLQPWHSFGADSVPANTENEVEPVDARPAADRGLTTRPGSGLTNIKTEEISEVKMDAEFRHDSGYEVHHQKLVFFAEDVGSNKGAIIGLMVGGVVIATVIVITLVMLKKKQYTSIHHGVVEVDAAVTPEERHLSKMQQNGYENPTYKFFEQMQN
UniProt Q9NUS5: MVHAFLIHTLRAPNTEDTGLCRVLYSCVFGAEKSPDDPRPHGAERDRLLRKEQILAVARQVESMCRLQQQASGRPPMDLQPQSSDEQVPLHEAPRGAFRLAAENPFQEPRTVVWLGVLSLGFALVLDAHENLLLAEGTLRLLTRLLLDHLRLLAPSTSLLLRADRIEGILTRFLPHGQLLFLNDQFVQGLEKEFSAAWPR
UniProt O75843: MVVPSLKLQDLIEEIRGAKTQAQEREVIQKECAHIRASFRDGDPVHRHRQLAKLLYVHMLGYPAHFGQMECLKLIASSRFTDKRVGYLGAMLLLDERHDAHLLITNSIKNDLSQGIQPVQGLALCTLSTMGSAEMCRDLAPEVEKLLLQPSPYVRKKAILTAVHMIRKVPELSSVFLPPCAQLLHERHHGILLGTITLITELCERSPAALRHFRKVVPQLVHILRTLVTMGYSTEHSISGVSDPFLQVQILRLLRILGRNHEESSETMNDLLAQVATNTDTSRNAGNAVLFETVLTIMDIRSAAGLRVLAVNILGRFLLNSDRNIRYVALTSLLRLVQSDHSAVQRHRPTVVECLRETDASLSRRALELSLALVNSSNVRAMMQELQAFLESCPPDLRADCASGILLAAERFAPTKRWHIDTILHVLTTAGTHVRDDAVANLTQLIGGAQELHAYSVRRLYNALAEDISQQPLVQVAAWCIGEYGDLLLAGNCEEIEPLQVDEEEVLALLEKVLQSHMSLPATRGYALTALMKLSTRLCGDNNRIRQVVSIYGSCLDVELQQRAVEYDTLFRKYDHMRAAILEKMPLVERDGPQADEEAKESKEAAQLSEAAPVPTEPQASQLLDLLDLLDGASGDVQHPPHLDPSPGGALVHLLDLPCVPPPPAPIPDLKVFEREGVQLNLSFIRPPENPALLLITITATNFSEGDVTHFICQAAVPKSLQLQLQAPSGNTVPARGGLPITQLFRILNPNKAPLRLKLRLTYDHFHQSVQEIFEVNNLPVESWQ
UniProt P15514, whole entry, looked up: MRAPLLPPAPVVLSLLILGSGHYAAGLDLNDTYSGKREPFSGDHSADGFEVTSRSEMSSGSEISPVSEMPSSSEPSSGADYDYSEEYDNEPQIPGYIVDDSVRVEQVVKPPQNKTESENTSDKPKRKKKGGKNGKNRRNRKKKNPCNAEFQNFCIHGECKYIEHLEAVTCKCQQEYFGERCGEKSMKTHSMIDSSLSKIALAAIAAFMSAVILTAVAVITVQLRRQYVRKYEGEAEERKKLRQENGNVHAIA
UniProt P02656: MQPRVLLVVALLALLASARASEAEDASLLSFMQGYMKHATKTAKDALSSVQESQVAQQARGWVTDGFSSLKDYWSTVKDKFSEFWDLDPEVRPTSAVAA

Assays:
Test in all cases: log2 fold change, soluble protein after heating vs DMSO (PISA); higher = thermal stabilisation; K562 cells, 10 uM, 30 min; active = over 0.2 and 3.5 SD of the protein, either way, in both replicates (recomputed)
[1] = compound: CS(=O)(=O)c1ccc(-c2cnc(N)c(C(=O)Nc3ccccc3)n2)cc1
Outline: (§1)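 K562 cells at 2×10^6 cells/mL were treated with 10 μM compound for 30 min. Aliquots were heated for 3 min across 48°C-58°C, pooled, and extracted in PBS with 0.5% NP-40 at 4°C; soluble protein was the supernatant after 21,000xg for 90 min. Soluble protein was quantified by TMTpro 16plex LC-MS/MS with channel sums equalised, and reported as log2 fold change in thermal stability against DMSO controls, with values from duplicates.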

[2] = compound: C[C@@H]1COCCN1C2=NC(=NC(=C2)C3(CC3)S(=O)(=O)C)C4=C5C=CNC5=CC=C4
Outline: as §1

duvelisib = compound: C[C@H](Nc1ncnc2nc[nH]c12)c1cc2cccc(Cl)c2c(=O)n1-c1ccccc1 [duvelisib]
Outline: as §1

gandotinib = compound: Cc1cc(Nc2cc(CN3CCOCC3)c3nc(C)c(Cc4ccc(Cl)cc4F)n3n2)n[nH]1 [gandotinib]
Outline: as §1

tozasertib = compound: Cc1cc(Nc2cc(N3CCN(C)CC3)nc(Sc3ccc(NC(=O)C4CC4)cc3)n2)n[nH]1 [tozasertib]
Outline: as §1

[3] = compound: Cc1cc(SCc2sc(-c3ccc(C(F)(F)F)cc3)nc2C)ccc1OCC(=O)O
Outline: as §1

[4] = compound: Cc1cccc(CC(=O)N2CCc3c2ccc(-c2cn(C)c4ncnc(N)c24)c3F)n1
Outline: as §1

dasatinib = compound: Cc1nc(Nc2ncc(C(=O)Nc3c(C)cccc3Cl)s2)cc(N2CCN(CCO)CC2)n1 [dasatinib]
Outline: as §1

mubritinib = compound: FC(F)(F)c1ccc(/C=C/c2nc(COc3ccc(CCCCn4ccnn4)cc3)co2)cc1 [mubritinib]
Outline: as §1

crizotinib = compound: C[C@@H](Oc1cc(-c2cnn(C3CCNCC3)c2)cnc1N)c1c(Cl)ccc(F)c1Cl [crizotinib]
Outline: as §1

[5] = compound: C[C@H](C1=CC=C(C=C1)C(=O)NC2=C3C=CNC3=NC=C2)N
Outline: as §1

doramapimod = compound: Cc1ccc(-n2nc(C(C)(C)C)cc2NC(=O)Nc2ccc(OCCN3CCOCC3)c3ccccc23)cc1 [doramapimod]
Outline: as §1

nilotinib = compound: Cc1cn(-c2cc(NC(=O)c3ccc(C)c(Nc4nccc(-c5cccnc5)n4)c3)cc(C(F)(F)F)c2)cn1 [nilotinib]
Outline: as §1

[6] = compound: Cc1nc(Nc2n[nH]c3c2CN(C(=O)N[C@H](CN(C)C)c2ccccc2)C3(C)C)c2sccc2n1
Outline: as §1

[7] = compound: Cc1ncc(-c2ccnc(Nc3ccc(S(C)(=O)=O)cc3)n2)n1C(C)C
Outline: as §1

[8] = compound: Cn1cc(-c2ccc3c(c2)CCN3C(=O)Cc2cccc(C(F)(F)F)c2)c2c(N)ncnc21
Outline: as §1

ispinesib = compound: Cc1ccc(C(=O)N(CCCN)[C@@H](c2nc3cc(Cl)ccc3c(=O)n2Cc2ccccc2)C(C)C)cc1 [ispinesib]
Outline: as §1

[9] = compound: Cn1cc(-c2ccc3nnc(C(F)(F)c4ccc5ncccc5c4)n3n2)cn1
Outline: as §1

tipifarnib = compound: Cn1cncc1[C@@](N)(c1ccc(Cl)cc1)c1ccc2c(c1)c(-c1cccc(Cl)c1)cc(=O)n2C [tipifarnib]
Outline: as §1

bafetinib = compound: Cc1ccc(NC(=O)c2ccc(CN3CC[C@H](N(C)C)C3)c(C(F)(F)F)c2)cc1Nc1nccc(-c2cncnc2)n1 [bafetinib]
Outline: as §1

Measured: log2 fold change

ANKRD36 (UniProt A6QL64)
inactive: [1] 0.069 | [2] 0.023 | duvelisib 0.116 | gandotinib 0.033 | tozasertib 0.015 | [3] 0.044 | [4] -0.519 | dasatinib -0.005 | mubritinib -0.153

APOC2 (UniProt P02655)
inactive: crizotinib 0.008 | [5] 0.049 | duvelisib 0.13 | gandotinib -0.202 | [3] 0.095 | doramapimod -0.016 | [4] 0.026 | nilotinib 0.305 | [6] -0.072 | dasatinib -0.038 | [7] -0.078 | [8] 0.201 | mubritinib 0.003

ANKRD52 (UniProt Q8NB46)
inactive: crizotinib -0.295 | [2] -0.081 | [5] -0.014 | duvelisib 0.661 | tozasertib 0.226 | [3] 0.11 | doramapimod 0.094 | ispinesib -0.174 | nilotinib 0.072 | [6] -0.053 | dasatinib 0.379 | [7] 0.003 | [8] 0.023 | [9] -0.06 | mubritinib -0.049

APLF (UniProt Q8IW19)
inactive: [5] 0.536 | [8] -0.019 | tipifarnib -0.06

ARHGAP35 (UniProt Q9NRY4)
inactive: crizotinib 0.058 | [2] -0.101 | [5] 0.183 | duvelisib -0.181 | gandotinib -0.144 | tozasertib 0.064 | [3] 0.069 | doramapimod -0.027 | ispinesib -0.212 | [4] -0.089 | dasatinib -0.016 | [8] -0.024 | [9] -0.081 | tipifarnib 0.053 | mubritinib -0.186

APOA4 (UniProt P06727)
inactive: [2] 0.1 | tozasertib -0.055 | ispinesib -0.053 | bafetinib -0.062 | nilotinib 0.173 | [6] -0.046 | [7] 0.233 | [9] -0.1 | mubritinib 0

APPBP2 (UniProt Q92624)
inactive: crizotinib -0.108 | [5] 0.008 | duvelisib -0.09 | gandotinib 0.101 | tozasertib 0.061 | [3] -0.09 | doramapimod -0.114 | ispinesib 0.063 | bafetinib -0.089 | [4] -0.042 | nilotinib -0.132 | [6] 0.019 | dasatinib -0.078 | [7] 0.04 | [8] -0.063 | [9] -0.102 | tipifarnib -0.174

APC (UniProt P25054)
inactive: crizotinib -0.369 | [2] -0.02 | [5] -0.008 | duvelisib -0.164 | tozasertib -0.002 | [3] -0.014 | doramapimod -0.09 | ispinesib -0.154 | bafetinib 0.059 | dasatinib 0.008 | [8] -0.014 | [9] 0.021

ANKRD26 (UniProt Q9UPS8)
inactive: [1] -0.026 | [5] -0.008 | gandotinib -0.006 | tozasertib 0.113 | ispinesib -0.042 | [4] -0.042 | nilotinib -0.039 | [6] 0.069 | [7] 0.034 | [8] 0.126 | [9] 0.059 | tipifarnib -0.021 | mubritinib -0.094

AP1B1 isoform 3 (UniProt Q10567)
inactive: crizotinib 0.112 | [2] 0.081 | [5] 0.087 | duvelisib 0.103 | gandotinib 0 | tozasertib 0.085 | [3] -0.105 | doramapimod -0.068 | ispinesib 0.028 | [4] -0.053 | nilotinib 0.02 | [6] -0.014 | dasatinib -0.063 | [7] 0.045 | [8] 0.015 | [9] -0.082 | tipifarnib -0.072 | mubritinib -0.011

ARHGAP4 isoform 2 (UniProt P98171)
inactive: [1] 0.023 | [5] 0.212 | [3] 0.131 | ispinesib -0.111 | nilotinib -0.137 | [6] 0.436 | dasatinib -0.097 | [7] -0.174 | [8] -0.06 | [9] -0.046 | tipifarnib 0.161 | mubritinib -0.164
active: bafetinib 0.709

ANKRD27 (UniProt Q96NW4)
inactive: crizotinib -0.358 | doramapimod 0.052 | ispinesib -0.52 | [9] -0.264

ARID4B (UniProt Q4LE39)
inactive: tozasertib 0.229 | mubritinib -0.085

ARID1B isoform 3 (UniProt Q8NFD5)
inactive: ispinesib -0.225 | bafetinib 0.112 | [9] 0.277

ANGEL1 (UniProt Q9UNK9)
inactive: crizotinib -0.058 | doramapimod -0.028 | ispinesib 0.27 | bafetinib 0.015 | [9] -0.063

ANKRD13C (UniProt Q8N6S4)
inactive: [2] -0.053 | [5] 0.436 | tozasertib -0.05 | [8] -0.224

ANKLE2 (UniProt Q86XL3)
inactive: crizotinib -0.126 | doramapimod 0.055 | tipifarnib 0.131

ARHGEF10 (UniProt O15013)
inactive: bafetinib 0.352

APBA2 (UniProt Q99767)
inactive: [2] 0.004

APP (UniProt P05067)
inactive: [1] -0.08 | [2] -0.078 | tozasertib 0.14 | ispinesib -0.019 | nilotinib 0.119 | [6] -0.246 | [7] -0.019 | [9] -0.048 | tipifarnib 0.058 | mubritinib 0.067

ARHGAP21 (UniProt Q5T5U3)
inactive: [1] -0.029 | [2] -0.514 | [5] 0.326 | duvelisib 0.007 | gandotinib 0.077 | [3] -0.148 | ispinesib -0.158 | bafetinib 0.037 | [4] -0.103 | nilotinib -0.133 | [6] 0.198 | dasatinib 0.192 | [7] 0.106 | [8] -0.009 | [9] 0.073 | mubritinib -0.193

AP5S1 (UniProt Q9NUS5)
inactive: nilotinib -0.059 | [6] 0.007 | [7] 0.051 | mubritinib -0.055

Fetched one by one from above, 2 records:
ARHGAP21 (UniProt Q5T5U3)
inactive: [1] -0.029 | [2] -0.514 | [5] 0.326 | duvelisib 0.007 | gandotinib 0.077 | [3] -0.148 | ispinesib -0.158 | bafetinib 0.037 | [4] -0.103 | nilotinib -0.133 | [6] 0.198 | dasatinib 0.192 | [7] 0.106 | [8] -0.009 | [9] 0.073 | mubritinib -0.193

APBA2 (UniProt Q99767)
inactive: [2] 0.004

Later entries:

AP1G2 (UniProt O75843)
inactive: [5] 0.489 | duvelisib -0.108 | [3] 0.029 | ispinesib -0.245 | dasatinib 0.086 | [8] -0.368 | [9] 0 | tipifarnib -0.269

ANKRD11 (UniProt Q6UB99)
inactive: [1] 0.142 | ispinesib -0.422 | bafetinib -0.059 | nilotinib -0.284 | [6] -0.058 | [7] -0.106 | [9] 0.102 | mubritinib 0.148

ANKIB1 (UniProt Q9P2G1)
inactive: nilotinib 0.126 | [6] 0.192 | [7] 0.088

AREG (UniProt P15514)
inactive: crizotinib -0.226 | duvelisib 0.123 | [3] 0.322 | doramapimod -0.04 | dasatinib 0.025 | tipifarnib 0.187

APOD (UniProt P05090)
inactive: [1] 0.039 | [5] 0.029 | tozasertib 0.419 | nilotinib 0.089 | [6] -0.097 | [7] 0.579 | [8] 0.21 | tipifarnib -0.014 | mubritinib -0.119

APOL1 isoform 2 (UniProt O14791)
inactive: [5] 0.27 | tozasertib 0.08 | bafetinib 0.006 | nilotinib 0.019 | [6] -0.14 | [7] 0.103 | [8] -0.071

ARHGAP22 isoform 2 (UniProt Q7Z5H3)
inactive: [1] 0.1 | gandotinib 0.431 | tozasertib -0.291 | ispinesib 0.035 | [4] 0.008 | [9] 0.008 | tipifarnib -0.06

APH1B (UniProt Q8WW43)
inactive: [1] -0.068 | gandotinib 0.014 | [4] -0.055

API5 isoform 1 (UniProt Q9BZZ5)
inactive: [2] -0.025 | [5] -0.268 | duvelisib 0.151 | tozasertib 0.188 | [3] -0.079 | nilotinib -0.267 | [6] -0.242 | dasatinib -0.095 | [7] 0.196 | [8] 0.201 | tipifarnib 0.128

APOC3 (UniProt P02656)
inactive: [1] 0.033 | [2] 0.355 | [5] 0.358 | duvelisib 0.264 | tozasertib 0.071 | [3] 0.044 | ispinesib 0.112 | bafetinib 0.153 | nilotinib 0.108 | [6] 0.183 | dasatinib 0.119 | [7] -0.042 | [8] 0.031 | [9] 0 | tipifarnib 0.117 | mubritinib 0.066
